Data as given in PubChem BioAssay AID1053208 (Peter MacCallum Cancer Centre, 2014).
Purpose: 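Find knock-downs that sensitise mouse osteosarcoma cells to doxorubicin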 (primary screen). Cell system: mouse osteosarcoma cells, early-passage culture from an engineered mouse model of fibroblastic bone tumour. Knock-down reagent: siRNA pool against mouse genes, 40 nM. Time to read-out: about 120 h (48 h before drug, then 72 h with drug). Challenge: doxorubicin 100 nM for 72 h, roughly 30-40% inhibitory dose. Measurement: 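Luminescent ATP signal taken as viability with or without 100 nM doxorubicin for 72 h; mean of two wells set against non-targeting siRNA and turned into robust z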. Direction: viability z-score with doxorubicin: higher = more viable cells under doxorubicin; viability z-score without drug: higher = more viable cells with knock-down alone. Call rule: 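a pool counts as active when its viability z-score with doxorubicin is -2 or below and its z-score without drug lies between -2 and 2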.
Here is one part, drawn at random, of about 17,000 reagents tested. 788 of all reagents (4.7%) were called active. 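Calls rest on z-score classes alone; an extra cut-off of viability at most 70% of control was not applied to them.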 Entries without a mark were called inactive. Further read-outs or replicates are left out here.

{"gene": "Frk (fyn-related kinase)", "combined z-score class": "no change with or without drug", "viability z-score with doxorubicin": 0, "viability z-score without drug": -0.17}
{"gene": "Doc2g (double C2, gamma)", "combined z-score class": "no change with or without drug", "viability z-score with doxorubicin": 0.22, "viability z-score without drug": 0.51}
{"gene": "Pnkd (paroxysmal nonkinesiogenic dyskinesia)", "combined z-score class": "no change with or without drug", "viability z-score with doxorubicin": -1.35, "viability z-score without drug": -0.84}
{"gene": "Bcl2l12 (BCL2 like 12)", "combined z-score class": "no change with or without drug", "viability z-score with doxorubicin": -0.22, "viability z-score without drug": -0.34}
{"gene": "Pde10a (phosphodiesterase 10A)", "combined z-score class": "no change with or without drug", "viability z-score with doxorubicin": -0.22, "viability z-score without drug": -0.17}
{"gene": "Brms1l (breast cancer metastasis-suppressor 1-like)", "combined z-score class": "no change with or without drug", "viability z-score with doxorubicin": 0.22, "viability z-score without drug": 0.17}
{"gene": "Dagla (diacylglycerol lipase, alpha)", "combined z-score class": "no change with or without drug", "viability z-score with doxorubicin": 0.67, "viability z-score without drug": 1.85}
{"gene": "Dnase1 (deoxyribonuclease I)", "combined z-score class": "no change with or without drug", "viability z-score with doxorubicin": 0.9, "viability z-score without drug": 0}

The list goes on (2 carried over from the part before).
{"gene": "Dagla (diacylglycerol lipase, alpha)", "combined z-score class": "no change with or without drug", "viability z-score with doxorubicin": 0.67, "viability z-score without drug": 1.85}
{"gene": "Dnase1 (deoxyribonuclease I)", "combined z-score class": "no change with or without drug", "viability z-score with doxorubicin": 0.9, "viability z-score without drug": 0}
{"gene": "BC048679 (cDNA sequence BC048679)", "combined z-score class": "no change with or without drug", "viability z-score with doxorubicin": -1.8, "viability z-score without drug": -1.18}
{"gene": "Insc (INSC spindle orientation adaptor protein)", "combined z-score class": "no change with or without drug", "viability z-score with doxorubicin": 0.22, "viability z-score without drug": -0.17}
{"gene": "Ccnd1 (cyclin D1)", "combined z-score class": "no change with or without drug", "viability z-score with doxorubicin": -0.67, "viability z-score without drug": -0.51}
{"gene": "Supt6 (SPT6, histone chaperone and transcription elongation factor)", "combined z-score class": "no change with or without drug", "viability z-score with doxorubicin": -0.34, "viability z-score without drug": 0.51}
